Measured values as given in article PMC5095593.

Sequences of proteins named here, by UniProt entry; tags and fusion partners are left off. A change or cut given only in a name is not applied to a line headed by its entry.
UniProt P25445: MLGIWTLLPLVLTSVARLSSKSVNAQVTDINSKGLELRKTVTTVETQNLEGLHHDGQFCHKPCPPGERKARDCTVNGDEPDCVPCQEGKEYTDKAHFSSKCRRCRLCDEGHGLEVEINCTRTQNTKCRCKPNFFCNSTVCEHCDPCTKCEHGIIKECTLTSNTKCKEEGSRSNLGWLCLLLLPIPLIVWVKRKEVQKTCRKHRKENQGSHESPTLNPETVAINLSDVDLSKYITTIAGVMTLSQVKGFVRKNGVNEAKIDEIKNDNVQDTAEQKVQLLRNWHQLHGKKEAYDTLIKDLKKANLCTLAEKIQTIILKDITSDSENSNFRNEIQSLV
UniProt Q13158: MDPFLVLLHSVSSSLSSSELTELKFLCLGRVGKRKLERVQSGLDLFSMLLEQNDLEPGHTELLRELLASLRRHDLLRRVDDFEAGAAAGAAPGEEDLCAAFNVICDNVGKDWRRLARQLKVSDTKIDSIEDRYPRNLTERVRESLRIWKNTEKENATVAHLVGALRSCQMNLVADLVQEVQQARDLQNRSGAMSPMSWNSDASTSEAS

Assays:
[1] = target: intracellular domain (IcD) of CD95 fused to glutathione S-transferase (GST-CD95-IcD) (UniProt P25445); assay: pull-down; in vitro DISC model: 10 μg purified GST-CD95-IcD on glutathione Sepharose beads with 10 mg caspase-8 null Jurkat cell lysate, 16 h at 23 °C; beads washed in PBS; endogenous lysate proteins blotted; only the target purified
[2] = target: intracellular domain (IcD) of CD95 fused to glutathione S-transferase (GST-CD95-IcD) (UniProt P25445); assay: pull-down; lysate-free fully reconstituted DISC (r-DISC): GST-CD95-IcD beads, r-FADD (5 μg) and 35S-labelled recombinant procaspase-8b; beads analysed for FADD; both purified

Row | binding [2] | Substance | binding [1]
1 |  | FADD (Fas-Associated protein with Death Domain), endogenous in caspase-8 null Jurkat cells (from UniProt Q13158 1-208) | binds
2 | binds | recombinant FADD (r-FADD) (from UniProt Q13158 1-208) | 

No constants are given. Whether binding was seen depends on the method and setting. In cells and extracts the contact can be indirect. Binding can be weak; no strength is given.
